According to PubChem BioAssay AID720504 (National Center for Advancing Translational Sciences (NCATS), 2013):
“And” between values parts separate entries of the source, which are not always exact repeats. Equal entries are not always repeated. The whole screen tested about 360,000 compounds, of which about 10,000 (2.8%) were called active. Inconclusive means that the source gave no clear call. Such entries were picked first, then a sample of the others. Calls follow the shape of the dose curve; as a rule, active = well fitted inhibition curve with a large enough effect; inconclusive = small, poorly fitted or top-dose-only effect; inactive = flat fitted curve, though single readings scatter. A potency beside an inconclusive call is a rough fit, not a confirmed value.

Amino acid sequences for entries named in this document (tags omitted).
UniProt P53350, whole entry, looked up: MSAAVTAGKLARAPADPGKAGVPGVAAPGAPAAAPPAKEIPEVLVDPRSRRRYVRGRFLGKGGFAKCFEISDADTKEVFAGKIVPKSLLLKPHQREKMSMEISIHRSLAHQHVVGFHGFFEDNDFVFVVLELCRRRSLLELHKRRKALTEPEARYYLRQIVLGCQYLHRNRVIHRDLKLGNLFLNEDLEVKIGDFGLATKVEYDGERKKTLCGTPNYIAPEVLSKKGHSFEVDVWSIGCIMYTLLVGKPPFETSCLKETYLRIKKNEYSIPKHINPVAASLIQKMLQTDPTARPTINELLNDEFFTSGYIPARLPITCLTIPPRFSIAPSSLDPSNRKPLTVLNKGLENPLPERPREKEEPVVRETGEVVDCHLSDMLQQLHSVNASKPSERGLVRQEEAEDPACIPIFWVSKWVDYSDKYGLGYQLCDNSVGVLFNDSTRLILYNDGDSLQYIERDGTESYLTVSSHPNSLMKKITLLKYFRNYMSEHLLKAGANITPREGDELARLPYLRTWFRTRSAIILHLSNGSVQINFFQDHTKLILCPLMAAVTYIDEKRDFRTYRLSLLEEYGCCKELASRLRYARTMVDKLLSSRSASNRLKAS

Target: Serine/threonine-protein kinase PLK1 (Homo sapiens) (UniProt P53350)
Assay: qHTS for Inhibitors of PLK1-PDB (polo-like kinase 1 - polo-box domain): Primary Screen; also: nearly all actives have a fitted effect of over 65% in size; as to max response, negative = inhibition: series mostly up to about 57 µM
Details: Plk1 PBD binding of FITC phosphopeptide, fluorescence polarization
% is scaled to controls: 0 for no effect and ±100 for the full control effect; potency is read from the fitted curve at half-maximal effect.

Row | SMILES | Potency | max response, negative = inhibition
1 | CSc1ccc(S(=O)(=O)Nc2ccc(OCC(=O)N3CCOCC3)cc2)cc1 | inconclusive: 21.2 µM [inhibitor, partial curve] | 
2 | O=C(CC1CCCCC1)NCCOc1ccccc1 | active: 26.7 µM | 
3 | COc1ccc(CSc2nc3nc(C)cc(C)n3n2)cc1F | inconclusive: 23.8 µM [inhibitor, partial curve] | 
4 | Cc1ccc(C(=O)O)cc1NC(=S)NC(=O)c1ccc(COc2ccccc2)cc1 | inconclusive: 21.2 µM [inhibitor, partial curve] | 
5 | CC1=Nc2ccc(C)cc2/C1=C/c1c(N)n2oc(C)cc2nc1=O |  | inactive: -9.92% and inactive: 0.931%
6 | COc1cc(OC)cc(C(=O)NCc2n[nH]c(=S)n2-c2ccccc2)c1 |  | inactive: -7.4%
7 | O=C(O)c1cccc(N/N=C/c2ccc(OC(F)(F)F)cc2)c1 |  | inactive: -24.2%
8 | COc1cc(CCC(=O)Nc2sccc2C#N)cc(OC)c1OC |  | inactive: -8.21%
9 | O=C(Nc1ccc2c(c1)nc1n2CCSC1)c1ccco1 |  | inactive: -14%
10 | O=C(CSc1ncnc2nc[nH]c12)N1CCN(c2ccc(Cl)cc2)CC1 |  | inactive: -0.139%
11 | Cc1cc(C)c(C(=O)COc2cccnc2[N+](=O)[O-])cc1C | inconclusive: 29.9 µM [inhibitor, partial curve] | 
12 | COc1ccc(NC(=O)C(=O)NCCC2CCCCN2S(=O)(=O)c2cccs2)cc1 (centres undefined) |  | inactive: -6.63%
13 | O=C1NC(=S)SC1=C1CCCC1 | inconclusive: 37.7 µM [inhibitor, single point] | 
14 | O=C(Nc1nc(=O)c2ccccc2s1)c1ccc(Cl)cc1 | inconclusive: 29.9 µM [inhibitor, single point] | 
15 | COc1ccc(-n2cc(CNCCc3nc(C)cc(C)n3)c(-c3ccccc3Cl)n2)cc1 |  | inactive: -4.07%
16 | Cc1c(NC(=O)Nc2ccc(C#N)cc2)c(=O)n(-c2ccccc2)n1C | inconclusive: 21.2 µM [inhibitor, partial curve] | 
17 | O=C1C(=Cc2ccco2)CCC1=Cc1ccco1 | inconclusive: 5.32 µM [inhibitor, full curve] | 
18 | Cc1ccc(C)c(-n2c(-c3csc(C)c3)n[nH]c2=S)c1 |  | inactive: -19.6%
19 | Cc1ccc2c(c1)[nH]c1c(=O)n(Cc3ccco3)cnc12 | active: 26.7 µM | 
20 | COc1ccc(NC(=O)C2(C)CCN2Cc2ccccc2OC(F)F)cc1OC (centres undefined) |  | inactive: 7.1%
21 | CC(C)CC(=O)NCc1ccc2[nH]c3c(c2c1)CCCC3 |  | inactive: -3.42%
22 | Cc1cc(Br)ccc1OCC(=O)NNC(=O)C(=O)Nc1ccccc1 | inconclusive: 26.7 µM [inhibitor, partial curve] | 
23 | CCOC(=O)c1ccc(NC(=S)NCCCn2ccnc2)cc1 |  | inactive: -6.74%
24 | O=Cc1c[nH]c2ccc(S(=O)(=O)N3CCCCC3)cc12 |  | inactive: -0.54%
25 | O=C(Nc1ccc(S(=O)(=O)Nc2nccs2)cc1)c1cc(-c2ccccc2)nc2ccccc12 | inconclusive: 8.44 µM [inhibitor, single point] | 

Row | SMILES | Potency | max response, negative = inhibition
26 | CCNS(=O)(=O)c1cc(S(C)(=O)=O)ccc1Cl |  | inactive: -10%
27 | COc1ccc(N(CC(=O)NCCC2=CCCCC2)S(=O)(=O)c2ccccc2)cc1 | inconclusive: 23.8 µM [inhibitor, partial curve] | 
28 | COc1ccc(SC[C@H](Cc2ccccc2)N2CC[C@@H](C(C)(C)C)CCC2=O)cc1 | inconclusive: 13.4 µM [inhibitor, partial curve] | 
29 | CCOc1cc(/C=N/Nc2cccc(C(=O)O)c2)ccc1OC(=O)c1ccccc1 | active: 29.9 µM | 
30 | Cc1ccc(Nc2nc(-c3ccccc3)c(CC(=O)O)s2)cc1 |  | inconclusive: -32.6% [inhibitor]
31 | Cc1c(Cl)cccc1NC(=O)CCNC(=O)N1CC(=O)Nc2ccccc21 | active: 26.7 µM | 
32 | COc1ccccc1C1CC(c2ccco2)=NN1S(C)(=O)=O (centres undefined) | inconclusive: 21.2 µM [inhibitor, single point] | 
33 | O=c1c2ccccc2nc(-c2ccc(Cl)cc2Cl)n1O | inconclusive: 26.7 µM [inhibitor, partial curve] | 
34 | Cc1ccn(CC(=O)N2CCCC(N3CCN(c4ccccc4F)CC3)C2)n1 (centres undefined) | inconclusive: 26.7 µM [inhibitor, partial curve] | 
35 | O=C(O)c1ccc(Cl)c(NC(=S)NC(=O)c2ccccc2[N+](=O)[O-])c1 | inconclusive: 37.7 µM [inhibitor, partial curve] | 
36 | Nc1c2c(nc3ccccc13)N(C1CCCCC1)CC2 | inconclusive: 23.8 µM [inhibitor, partial curve] | 
37 | O=C(Nc1cc(S(=O)(=O)N2CCOCC2)ccc1N1CCCCC1)c1ccccc1Br | active: 4.74 µM | 
38 | CCCNC(=O)c1ccc2nc(-c3ccccc3)c(-c3ccccc3)nc2c1 | inconclusive: 11.9 µM [inhibitor, partial curve] | 
39 | O=C(C=CC(=O)Nc1ccc(F)cc1F)Nc1ccc(F)cc1F |  | inactive: 0.443%
40 | COc1ccc(N2CCC(CNC(=S)Nc3cccc(C)c3)C2)cc1 (centres undefined) | inconclusive: 29.9 µM [inhibitor, partial curve] | 
41 | Cc1cc(OCC(=O)Nc2cc(-c3nn4c(C)nnc4s3)ccc2C)ccc1Cl | inconclusive: 29.9 µM [inhibitor, partial curve] | 
42 | Oc1ccccc1C1NN=C(c2ccccc2)S1 (centres undefined) | inconclusive: 26.7 µM [inhibitor, partial curve] | 
43 | Cc1cccc(-c2nc(CS(=O)CC(=O)N3CCc4ccccc4C3)c(C)o2)c1 (centres undefined) | inconclusive: 26.7 µM [inhibitor, single point] | 
44 | Cc1ccc(NC(=S)c2nc3ccccc3[nH]2)c(C)c1 | inconclusive: 18.9 µM [inhibitor, partial curve] | 
45 | O=c1cc(O)nc(-c2ccccc2)s1 | inconclusive: 29.9 µM [inhibitor, single point] | 
46 | C/C(=N\Nc1nc(-c2ccc(C)cc2C)cs1)c1cc2ccccc2oc1=O |  | inconclusive: -32.4% [inhibitor]
47 | Cc1ccc(-c2nnn(CC(=O)Nc3nnc(C(C)C)s3)n2)cc1 | active: 26.7 µM | 
48 | O=C(/C=C/c1ccccc1)c1ccc2c(c1)OCCCCO2 |  | inactive: -7.76%
49 | CCN(CC)S(=O)(=O)c1ccc(C(=O)Nc2cc(S(=O)(=O)N3CCOCC3)ccc2O)cc1 | inconclusive: 21.2 µM [inhibitor, single point] | 
50 | Fc1ccc(C(CNC(=S)NC2CCCCC2)N2CCOCC2)cc1 (centres undefined) | inconclusive: 26.7 µM [inhibitor, partial curve] | 

Row | SMILES | Potency | max response, negative = inhibition
51 | O=C(NN1CCOCC1)c1cn(-c2ccccc2)nc1-c1cccs1 | active: 23.8 µM | 
52 | CCCCOC(=O)C1CN(c2ccccc2)N=C1C(C)=O (centres undefined) | active: 26.7 µM | 
53 | O=C(CCSc1ccccc1)Nc1ccc(S(=O)(=O)Nc2ncccn2)cc1 |  | inactive: -16.6%
54 | Cc1ccc(C2C(C#N)=C(N)N(c3cccnc3)C3=C2C(=O)CCC3)s1 (centres undefined) | inconclusive: 3.77 µM [inhibitor, full curve] | 
55 | O=C(N/N=C/c1cc([N+](=O)[O-])ccc1O)c1ccc(COc2ccc3c(c2)CCC3)o1 | inconclusive: 37.7 µM [inhibitor, partial curve] | 
56 | O=S(=O)(Nc1ccc(Cl)cc1)c1cccc2nsnc12 | active: 29.9 µM | 
57 | CCCCc1nc(S(=O)(=O)c2ccc(Cl)cc2)c(N2CCOCC2)o1 | inconclusive: 26.7 µM [inhibitor, partial curve] | 
58 | O=C(Nc1cc(S(=O)(=O)N2CCCCC2)ccc1Cl)c1ccccc1NS(=O)(=O)c1ccc(F)cc1 | inconclusive: 21.2 µM [inhibitor, single point] | 
59 | CCOC(=O)c1c(C)oc2ccc(OCc3cc(C(=O)OC)oc3C)cc12 | active: 26.7 µM | 
60 | COCCCNc1oc(COc2ccc(Cl)cc2Cl)nc1C#N |  | inconclusive: -32.5% [inhibitor]
61 | O=C1S/C(=C\C=C\c2ccco2)C(=O)N1c1ccc(O)cc1 |  | inactive: -8.33%
62 | CSC1=NSC2=NC(=O)/C(=C/c3coc4ccc(O)cc4c3=O)C(=N)N12 | inconclusive: 18.9 µM [inhibitor, single point] | 
63 | N#C/C(=N\Nc1ccc(Cl)c(Cl)c1)C(=O)C1CC1 | inconclusive: 33.6 µM [inhibitor, single point] | 
64 | COc1ccc(NC(=O)c2cc([N+](=O)[O-])nn2Cc2ccccc2)c(C)c1 |  | inconclusive: -31.8% [inhibitor]
65 | Cc1ccccc1-c1cc(C(=O)N2CCCC2)c2ccccc2n1 |  | inactive: -25.4%
66 | CCCCNC(=O)CCCCC(=O)N/N=C/c1ccccc1Cl |  | inactive: -7.68%
67 | O=C(OCc1nnc(-c2ccccc2)o1)c1ccc(Cl)cc1 | inconclusive: 8.44 µM [inhibitor, partial curve] | 
68 | COc1cc(C(=O)Nc2sc3c(c2C(=O)O)CCC(C)C3)cc(OC)c1OC (centres undefined) | inconclusive: 23.8 µM [inhibitor, single point] | 
69 | COC(=O)C(C)Sc1ccc2nnc(-c3ccc(F)cc3)n2n1 (centres undefined) |  | inactive: -7.96%
70 | CCOC(=O)c1[nH]c2cc3c(cc2c1NC(=O)CN1CCC(C)CC1)OCO3 |  | inactive: -1.66%
71 | CCOC(=O)C(C)Sc1nc2c(c(=O)[nH]c(=O)n2C)n1C/C=C(/C)Cl (centres undefined) | active: 11.9 µM | 
72 | COc1ccc(CCN2C(=O)CSC2=S)cc1OC |  | inactive: -1.71%
73 | COCc1[nH]nc2c1C(C1C=CCCC1)C(C#N)=C(N)O2 (centres undefined) |  | inactive: -8.66%
74 | O=C(CCN1CCOCC1)c1ccc2c(c1)OCCO2 | inconclusive: 21.2 µM [inhibitor, partial curve] | 

Some values from the entries so far:
For max response, negative = inhibition, COc1ccc(NC(=O)c2cc([N+](=O)[O-])nn2Cc2ccccc2)c(C)c1 shows inconclusive: -31.8% [inhibitor]
For max response, negative = inhibition, COc1ccc(CCN2C(=O)CSC2=S)cc1OC shows inactive: -1.71%
For Potency, CCOC(=O)C(C)Sc1nc2c(c(=O)[nH]c(=O)n2C)n1C/C=C(/C)Cl (centres undefined) shows active: 11.9 µM
For max response, negative = inhibition, COCCCNc1oc(COc2ccc(Cl)cc2Cl)nc1C#N shows inconclusive: -32.5% [inhibitor]
For Potency, O=C(NN1CCOCC1)c1cn(-c2ccccc2)nc1-c1cccs1 shows active: 23.8 µM
